T1: PPY-Flag (pancreatic polypeptide, predominant splicing variant, Flag-tagged) (human) (UniProt P01298)
T1 sequence: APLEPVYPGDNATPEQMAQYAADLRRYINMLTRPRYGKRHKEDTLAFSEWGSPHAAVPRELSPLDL

Sequences of proteins named here, by UniProt entry; tags and fusion partners are left off.
UniProt Q9UNF0: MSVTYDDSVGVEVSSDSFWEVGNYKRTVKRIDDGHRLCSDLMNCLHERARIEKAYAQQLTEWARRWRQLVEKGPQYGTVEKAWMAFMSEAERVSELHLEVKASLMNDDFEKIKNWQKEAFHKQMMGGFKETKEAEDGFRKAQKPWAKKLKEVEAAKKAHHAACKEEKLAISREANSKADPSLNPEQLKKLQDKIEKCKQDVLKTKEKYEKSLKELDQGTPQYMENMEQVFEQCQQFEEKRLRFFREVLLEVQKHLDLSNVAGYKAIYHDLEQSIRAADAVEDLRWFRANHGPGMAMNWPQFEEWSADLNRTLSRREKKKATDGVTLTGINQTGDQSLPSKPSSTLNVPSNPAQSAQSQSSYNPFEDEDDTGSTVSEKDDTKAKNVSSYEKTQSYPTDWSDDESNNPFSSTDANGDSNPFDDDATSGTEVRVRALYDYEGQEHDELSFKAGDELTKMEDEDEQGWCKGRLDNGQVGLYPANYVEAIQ
UniProt O00443: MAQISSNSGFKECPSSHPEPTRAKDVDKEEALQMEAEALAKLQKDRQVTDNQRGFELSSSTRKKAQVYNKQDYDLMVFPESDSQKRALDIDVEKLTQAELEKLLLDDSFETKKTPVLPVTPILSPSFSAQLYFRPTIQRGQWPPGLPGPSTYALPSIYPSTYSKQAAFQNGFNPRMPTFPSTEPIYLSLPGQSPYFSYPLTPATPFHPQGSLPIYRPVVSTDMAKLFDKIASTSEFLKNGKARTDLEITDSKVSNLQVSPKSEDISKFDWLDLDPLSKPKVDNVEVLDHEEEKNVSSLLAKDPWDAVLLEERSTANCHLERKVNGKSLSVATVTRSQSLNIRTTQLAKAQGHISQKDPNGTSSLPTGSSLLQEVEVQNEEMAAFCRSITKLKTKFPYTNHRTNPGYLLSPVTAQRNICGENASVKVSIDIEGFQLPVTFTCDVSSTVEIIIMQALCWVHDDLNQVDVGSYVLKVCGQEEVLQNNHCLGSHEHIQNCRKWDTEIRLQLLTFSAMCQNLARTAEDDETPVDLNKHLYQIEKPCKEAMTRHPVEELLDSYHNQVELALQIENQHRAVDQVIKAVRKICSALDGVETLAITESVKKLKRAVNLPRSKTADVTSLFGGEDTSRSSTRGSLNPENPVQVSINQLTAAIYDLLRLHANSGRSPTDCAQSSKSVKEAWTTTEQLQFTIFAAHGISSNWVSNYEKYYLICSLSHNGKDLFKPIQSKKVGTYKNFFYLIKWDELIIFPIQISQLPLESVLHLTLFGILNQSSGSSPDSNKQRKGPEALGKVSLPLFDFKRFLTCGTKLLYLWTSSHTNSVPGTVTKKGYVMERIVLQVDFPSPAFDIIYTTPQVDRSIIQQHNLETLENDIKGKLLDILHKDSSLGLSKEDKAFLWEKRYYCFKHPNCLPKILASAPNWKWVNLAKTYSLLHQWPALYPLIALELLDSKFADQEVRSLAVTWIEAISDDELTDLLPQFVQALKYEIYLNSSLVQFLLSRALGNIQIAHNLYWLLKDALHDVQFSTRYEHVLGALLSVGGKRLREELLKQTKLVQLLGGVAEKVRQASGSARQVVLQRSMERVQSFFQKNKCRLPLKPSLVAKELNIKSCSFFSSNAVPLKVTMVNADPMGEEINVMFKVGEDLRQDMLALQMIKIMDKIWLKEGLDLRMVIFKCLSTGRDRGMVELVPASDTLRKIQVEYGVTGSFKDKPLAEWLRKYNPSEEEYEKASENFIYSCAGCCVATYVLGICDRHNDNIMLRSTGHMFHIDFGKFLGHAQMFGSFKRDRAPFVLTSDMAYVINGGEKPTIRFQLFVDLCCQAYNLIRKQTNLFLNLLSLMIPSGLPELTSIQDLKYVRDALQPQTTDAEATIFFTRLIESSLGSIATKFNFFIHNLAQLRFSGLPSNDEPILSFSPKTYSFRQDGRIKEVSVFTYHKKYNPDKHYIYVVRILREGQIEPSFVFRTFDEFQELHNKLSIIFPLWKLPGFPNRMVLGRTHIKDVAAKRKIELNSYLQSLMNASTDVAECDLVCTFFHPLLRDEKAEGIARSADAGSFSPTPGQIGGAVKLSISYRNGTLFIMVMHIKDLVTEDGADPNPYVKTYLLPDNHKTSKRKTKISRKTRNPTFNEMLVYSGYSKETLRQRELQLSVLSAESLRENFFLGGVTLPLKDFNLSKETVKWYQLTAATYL

B1: SPART, endogenous in human CAFs (protein, UniProt Q8N0X7 1-666)
chain: MEQEPQNGEPAEIKIIREAYKKAFLFVNKGLNTDELGQKEEAKNYYKQGIGHLLRGISISSKESEHTGPGWESARQMQQKMKETLQNVRTRLEILEKGLATSLQNDLQEVPKLYPEFPPKDMCEKLPEPQSFSSAPQHAEVNGNTSTPSAGAVAAPASLSLPSQSCPAEAPPAYTPQAAEGHYTVSYGTDSGEFSSVGEEFYRNHSQPPPLETLGLDADELILIPNGVQIFFVNPAGEVSAPSYPGYLRIVRFLDNSLDTVLNRPPGFLQVCDWLYPLVPDRSPVLKCTAGAYMFPDTMLQAAGCFVGVVLSSELPEDDRELFEDLLRQMSDLRLQANWNRAEEENEFQIPGRTRPSSDQLKEASGTDVKQLDQGNKDVRHKGKRGKRAKDTSSEEVNLSHIVPCEPVPEEKPKELPEWSEKVAHNILSGASWVSWGLVKGAEITGKAIQKGASKLRERIQPEEKPVEVSPAVTKGLYIAKQATGGAAKVSQFLVDGVCTVANCVGKELAPHVKKHGSKLVPESLKKDKDGKSPLDGAMVVAASSVQGFSTVWQGLECAAKCIVNNVSAETVQTVRYKYGYNAGEATHHAVDSAVNVGVTAYNINNIGIKAMVKKTATQTGHTLLEDYQIVDNSQRENQEGAANVNVRGEKDEQTKEVKEAKKKDK
B2: RRAS, endogenous in human CAFs (protein, UniProt P10301 1-218)
chain: MSSGAASGTGRGRPRGGGPGPGDPPPSETHKLVVVGGGGVGKSALTIQFIQSYFVSDYDPTIEDSYTKICSVDGIPARLDILDTAGQEEFGAMREQYMRAGHGFLLVFAINDRQSFNEVGKLFTQILRVKDRDDFPVVLVGNKADLESQRQVPRSEASAFGASHHVAYFEASAKLRLNVDEAFEQLVRAVRKYQEQELPPSPPSAPRKKGGGCPCVLL

No constants are given. Whether binding was seen depends on the method and setting. Binding seen in cells or lysates may run through a third protein. A yes stands for co-enrichment or nearness to the bait. Other partners may have been found. Sequences can lack the tags named with a protein.

For this assay, the target named is T1, PPY-Flag (pancreatic polypeptide, predominant splicing variant, Flag-tagged) (human). Description: affinity purification with mass spectrometry; human CAFs treated with enriched PPY-Flag supernatant for 24 h, cells collected, immunoprecipitation with anti-Flag antibody or IgG control; Q-Exactive HF X; proteins also found in the IgG group excluded.
Turning to “PACSIN2, endogenous in human CAFs (from UniProt Q9UNF0 1-486)”, the binding entry is “binds”.

As for “PIK3C2A, endogenous in human CAFs (from UniProt O00443 1-1686)”, the binding result was “binds”.

As for “epidermal growth factor receptor (EGFR), endogenous in human CAFs (from UniProt P00533 25-1210)”, the binding result was “binds”.

Consider B1, for which the binding entry is on record as “binds”.

As for B2, the binding entry is given as “binds”.

Values taken from paper PMC12120788.
